{"sequences": {"note": "By UniProt entry, the sequences of proteins in these tests, tags left out. Where a name states a change or a piece, a line headed by the entry shows the natural chain unless it says otherwise.", "UniProt Q06208, whole entry, looked up, stated change not applied": "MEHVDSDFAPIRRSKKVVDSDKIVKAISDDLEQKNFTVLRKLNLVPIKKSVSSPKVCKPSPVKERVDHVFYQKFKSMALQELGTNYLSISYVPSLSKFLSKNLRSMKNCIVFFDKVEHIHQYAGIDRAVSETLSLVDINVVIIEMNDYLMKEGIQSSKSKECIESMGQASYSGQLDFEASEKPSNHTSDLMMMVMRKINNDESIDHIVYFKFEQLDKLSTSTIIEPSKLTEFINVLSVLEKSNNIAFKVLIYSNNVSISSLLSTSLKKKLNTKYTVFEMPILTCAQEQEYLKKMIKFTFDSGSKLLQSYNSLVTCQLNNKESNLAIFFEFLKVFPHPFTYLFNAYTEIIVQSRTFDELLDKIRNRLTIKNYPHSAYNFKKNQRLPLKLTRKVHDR"}, "source": "paper PMC10954470", "binders": {"B1": {"name": "Rif2^S6E-Myc (Rif2 S6E, epitope-tagged at its native genomic locus) (protein, UniProt Q06208 1-395)", "chain": "MEHVDEDFAPIRRSKKVVDSDKIVKAISDDLEQKNFTVLRKLNLVPIKKSVSSPKVCKPSPVKERVDHVFYQKFKSMALQELGTNYLSISYVPSLSKFLSKNLRSMKNCIVFFDKVEHIHQYAGIDRAVSETLSLVDINVVIIEMNDYLMKEGIQSSKSKECIESMGQASYSGQLDFEASEKPSNHTSDLMMMVMRKINNDESIDHIVYFKFEQLDKLSTSTIIEPSKLTEFINVLSVLEKSNNIAFKVLIYSNNVSISSLLSTSLKKKLNTKYTVFEMPILTCAQEQEYLKKMIKFTFDSGSKLLQSYNSLVTCQLNNKESNLAIFFEFLKVFPHPFTYLFNAYTEIIVQSRTFDELLDKIRNRLTIKNYPHSAYNFKKNQRLPLKLTRKVHDR"}}, "molecular_target": "T1, Rad50-HA (Rad50, hemagglutinin-tagged at its native genomic locus) (S. cerevisiae) (UniProt P12753)", "T1 sequence": "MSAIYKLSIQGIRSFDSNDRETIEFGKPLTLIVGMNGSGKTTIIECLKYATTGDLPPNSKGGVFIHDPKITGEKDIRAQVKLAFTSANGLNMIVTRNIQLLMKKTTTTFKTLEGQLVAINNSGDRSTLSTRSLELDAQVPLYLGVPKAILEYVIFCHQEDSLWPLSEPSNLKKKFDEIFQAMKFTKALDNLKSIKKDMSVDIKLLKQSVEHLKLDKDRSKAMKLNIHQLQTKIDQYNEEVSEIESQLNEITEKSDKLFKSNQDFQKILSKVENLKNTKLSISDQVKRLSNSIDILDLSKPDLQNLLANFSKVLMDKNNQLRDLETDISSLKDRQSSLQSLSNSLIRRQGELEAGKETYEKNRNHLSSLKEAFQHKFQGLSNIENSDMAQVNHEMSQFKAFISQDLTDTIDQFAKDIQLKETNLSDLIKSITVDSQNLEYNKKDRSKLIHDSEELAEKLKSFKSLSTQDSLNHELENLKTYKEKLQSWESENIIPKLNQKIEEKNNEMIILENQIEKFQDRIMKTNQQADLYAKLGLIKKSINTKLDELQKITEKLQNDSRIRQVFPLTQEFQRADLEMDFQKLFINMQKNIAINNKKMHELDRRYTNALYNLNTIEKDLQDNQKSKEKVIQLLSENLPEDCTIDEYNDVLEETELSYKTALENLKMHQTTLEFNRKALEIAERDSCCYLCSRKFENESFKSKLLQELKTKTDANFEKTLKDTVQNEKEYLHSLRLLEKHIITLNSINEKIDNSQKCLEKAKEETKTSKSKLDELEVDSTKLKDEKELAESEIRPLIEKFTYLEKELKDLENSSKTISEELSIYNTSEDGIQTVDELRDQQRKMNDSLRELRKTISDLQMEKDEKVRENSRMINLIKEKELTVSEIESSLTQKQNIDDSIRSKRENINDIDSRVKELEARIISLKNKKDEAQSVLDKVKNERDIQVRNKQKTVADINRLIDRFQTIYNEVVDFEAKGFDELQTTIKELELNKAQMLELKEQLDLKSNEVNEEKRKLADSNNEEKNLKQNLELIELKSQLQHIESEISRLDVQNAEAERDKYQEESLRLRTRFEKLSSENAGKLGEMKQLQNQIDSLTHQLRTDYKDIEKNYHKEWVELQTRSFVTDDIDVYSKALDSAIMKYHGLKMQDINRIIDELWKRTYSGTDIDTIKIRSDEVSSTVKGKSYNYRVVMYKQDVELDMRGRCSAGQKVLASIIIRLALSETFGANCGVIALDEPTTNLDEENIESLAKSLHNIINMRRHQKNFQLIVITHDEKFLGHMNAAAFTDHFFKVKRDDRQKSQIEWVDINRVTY", "assay": "co-IP; Rad50-HA immunoprecipitated with anti-HA (12CA5) and Protein G-Dynabeads from total yeast protein extracts, 2 h at 4°C; 50 mM HEPES pH 7.5, 140 mM NaCl, 1 mM EDTA, 10% glycerol; blot with anti-Myc (9E10)", "note": "Results are given in words; binding and its absence hold for the method and conditions named. Binding seen in cells or lysates may run through a third protein. Some results given as binding are weak or reduced against the parent protein; the word gives no strength. Tags and fused reporters may be left off the sequences shown."}
{"binder": "B1", "values": [{"measurement": "binding", "result": "binds"}]}
